Reference: PMC12162876
These are yes or no findings as the source states them, for the method shown. Binding seen in cells or lysates may run through a third protein. Some results given as binding are weak or reduced against the parent protein; the word gives no strength.

The chains behind the UniProt entries cited, without tags or fusion partners. Where a name states a change or a piece, a line headed by the entry shows the natural chain unless it says otherwise.
UniProt P11142: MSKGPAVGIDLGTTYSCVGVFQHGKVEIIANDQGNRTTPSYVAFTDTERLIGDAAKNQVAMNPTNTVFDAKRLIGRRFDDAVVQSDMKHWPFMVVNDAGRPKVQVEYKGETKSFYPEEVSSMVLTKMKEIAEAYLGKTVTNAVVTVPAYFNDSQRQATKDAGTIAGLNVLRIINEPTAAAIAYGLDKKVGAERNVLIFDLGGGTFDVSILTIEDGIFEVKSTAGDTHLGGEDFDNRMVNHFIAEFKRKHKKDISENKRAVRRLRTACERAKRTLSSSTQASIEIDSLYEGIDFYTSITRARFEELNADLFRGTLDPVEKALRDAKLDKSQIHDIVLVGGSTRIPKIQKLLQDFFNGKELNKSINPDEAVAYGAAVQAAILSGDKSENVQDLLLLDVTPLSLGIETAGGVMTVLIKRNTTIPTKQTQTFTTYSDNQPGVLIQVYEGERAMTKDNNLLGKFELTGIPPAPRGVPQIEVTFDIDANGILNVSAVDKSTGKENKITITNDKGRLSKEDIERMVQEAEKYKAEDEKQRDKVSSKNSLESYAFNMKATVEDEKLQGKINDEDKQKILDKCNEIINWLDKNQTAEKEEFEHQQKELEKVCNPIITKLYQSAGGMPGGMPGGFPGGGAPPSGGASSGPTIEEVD
UniProt P15104: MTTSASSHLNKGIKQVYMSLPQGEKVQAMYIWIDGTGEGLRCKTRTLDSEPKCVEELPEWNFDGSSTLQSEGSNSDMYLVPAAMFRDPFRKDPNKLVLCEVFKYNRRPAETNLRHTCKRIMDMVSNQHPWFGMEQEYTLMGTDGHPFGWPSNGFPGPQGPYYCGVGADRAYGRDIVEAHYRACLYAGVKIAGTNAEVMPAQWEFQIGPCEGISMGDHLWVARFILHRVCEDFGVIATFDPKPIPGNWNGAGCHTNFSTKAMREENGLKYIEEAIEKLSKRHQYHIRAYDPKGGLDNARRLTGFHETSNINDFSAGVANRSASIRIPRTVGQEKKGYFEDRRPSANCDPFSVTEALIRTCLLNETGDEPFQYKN

Target: HSPA8 (human (endogenous in primary nucleus pulposus cells)) (UniProt P11142)
Experiment: co-IP; NPC transfected with WT or mutant HA-tagged plasmids, lysate, specific antibodies and protein A/G magnetic beads, immunoblot; with or without starvation (Fig. 3j)

Substance	binding
HA-GLUL (WT) (from UniProt P15104 1-373) (enzyme)	binds
HA-GLUL K276A (from UniProt P15104 1-373) (enzyme)	no binding
